From the supplement of paper PMC11542785
Where a name gives a salt, the structure may show the parent alone. The list shows a part of the results. Many values rest on one well or one pass, so single values are uncertain. Square brackets hold non-standard residues; d marks the D form. Peptide text beside a SMILES is read from it. * marks the point of attachment. Sta = CC(C)C[C@H](N)[C@@H](O)CC(=O)O; Isovaleryl = CC(C)CC(=O)*; NHCH2CH2OH = OCCN*; For = O=C*

System: Drosophila melanogaster DPAGT1 (Alg7) RNAi eye model
Assay: eye size Z-score vs DMSO-treated DPAGT1 model flies; higher = larger eye (suppression of DPAGT1 phenotype)
Conditions: 5 uM

SMILES: Nc1ccc(S(=O)(=O)Nc2ccnn2-c2ccccc2)cc1 [Sulfaphenazole]
- eye size Z-score: 0.34

SMILES: CCC(=O)c1c(O)cc(O)cc1O [Flopropione]
- eye size Z-score: -0.13

SMILES: Nc1ccc2cc3ccc(N)cc3nc2c1 [Proflavine hemisulfate]
- eye size Z-score: 0.92

SMILES: Cc1cc(CC(=O)O)n(C)c1C(=O)c1ccc(Cl)cc1 [Zomepirac sodium salt]
- eye size Z-score: 0.11

SMILES: CC[C@H]1OC(=O)[C@H](C)[C@@H](O[C@H]2C[C@@](C)(OC)[C@@H](O)[C@H](C)O2)[C@H](C)[C@@H](O[C@@H]2O[C@H](C)C[C@H](N(C)C)[C@H]2O)[C@](C)(O)C[C@@H](C)[C@@H]2N[C@@H](COCCOC)O[C@H]([C@H]2C)[C@]1(C)O [Dirithromycin]
- eye size Z-score: -0.95

SMILES: O=C1CC2(CCCC2)CC(=O)N1CCCCN1CCN(c2ncccn2)CC1 [Buspirone hydrochloride]
- eye size Z-score: 1.23

SMILES: Cn1cc([S+](C)[O-])c(=O)c2ccc(F)cc21 (stereo not given) [Flosequinan]
- eye size Z-score: 0.51

SMILES: C[C@H](O)C(=O)Nc1c(I)c(C(=O)NC(CO)CO)c(I)c(C(=O)NC(CO)CO)c1I [Iopamidol]
- eye size Z-score: 0.45

SMILES: CC(C)CC(=O)N[C@H](C(=O)N[C@H](C(=O)N[C@@H](CC(C)C)[C@@H](O)CC(=O)N[C@@H](C)C(=O)N[C@@H](CC(C)C)[C@@H](O)CC(=O)O)C(C)C)C(C)C [Pepstatin A] (Isovaleryl-VV[Sta]A[Sta]-OH)
- eye size Z-score: 1.11

SMILES: Oc1ccc(OCc2ccccc2)cc1 [Monobenzone]
- eye size Z-score: -0.48

SMILES: C[C@H]1C[C@H]2[C@@H]3CCC4=CC(=O)C=C[C@]4(C)[C@@]3(F)[C@@H](O)C[C@]2(C)[C@@]1(O)C(=O)CO [Betamethasone]
- eye size Z-score: -0.3

SMILES: CCCNC(C)(C)C(=O)Nc1ccccc1C [Quatacaine]
- eye size Z-score: 0.65

SMILES: C=C1/C(=C\C=C2/CCC[C@]3(C)[C@@H]([C@H](C)/C=C/[C@@H](O)C4CC4)CC[C@@H]23)C[C@@H](O)C[C@@H]1O [Calcipotriene]
- eye size Z-score: -0.33

SMILES: Cc1ccc(Cl)c(Nc2ccccc2C(=O)O)c1Cl [Meclofenamic acid sodium salt monohydrate]
- eye size Z-score: -0.37

SMILES: O=C(NCCO[N+](=O)[O-])c1cccnc1 [Nicorandil]
- eye size Z-score: 0.04

SMILES: COC(=O)Nc1nc2ccc(SC(C)C)cc2[nH]1 [Methiazole]
- eye size Z-score: 0.36

SMILES: CN(C)CCOc1ccc(/C(=C(/CCCl)c2ccccc2)c2ccccc2)cc1 [Toremifene]
- eye size Z-score: -0.3

SMILES: CCN1CCN(C(=O)N[C@@H](C(=O)N[C@@H]2C(=O)N3C(C(=O)O)=C(CSc4nnnn4C)CS[C@H]23)c2ccc(O)cc2)C(=O)C1=O [Cefoperazone dihydrate]
- eye size Z-score: -2.27

SMILES: CC(NN)c1ccccc1 (stereo not given) [Mebanazine]
- eye size Z-score: 0.05

SMILES: CC(C(=O)O)c1ccc(N2Cc3ccccc3C2=O)cc1 (stereo not given) [Indoprofen]
- eye size Z-score: 0.27

SMILES: CO[C@@]12[C@H](COC(N)=O)C3=C(C(=O)C(C)=C(N)C3=O)N1C[C@@H]1N[C@@H]12 [Mitomycin C]
- eye size Z-score: -0.79

SMILES: CC1=Nc2ccc(Cl)cc2S(=O)(=O)N1 [Diazoxide]
- eye size Z-score: -0.19

SMILES: CCn1nc(C(=O)O)c(=O)c2cc3c(cc21)OCO3 [Cinoxacin]
- eye size Z-score: -0.44

SMILES: Cc1cc(/C=C/c2ccc3cc(N(C)C)ccc3[n+]2C)c(C)n1-c1ccccc1 [Pyrvinium pamoate]
- eye size Z-score: 0.56

SMILES: COCCOC(=O)C1=C(C)NC(C)=C(C(=O)OC/C=C/c2ccccc2)C1c1cccc([N+](=O)[O-])c1 (stereo not given) [Cilnidipine]
- eye size Z-score: 0.92

SMILES: CCCCNc1ccc(C(=O)OCCOCCOCCOCCOCCOCCOCCOCCOCCOC)cc1 [Benzonatate]
- eye size Z-score: 0.71

SMILES: O=C(O)/C=C/c1ccc(Cn2ccnc2)cc1 [Ozagrel hydrochloride]
- eye size Z-score: 0.34

SMILES: CCCc1nc(C)c2c(=O)nc(-c3cc(S(=O)(=O)N4CCN(CC)CC4)ccc3OCC)[nH]n12 [Vardenafil]
- eye size Z-score: -0.55

SMILES: O=C(O)COC(=O)Cc1ccccc1Nc1c(Cl)cccc1Cl [Aceclofenac]
- eye size Z-score: 1.08

SMILES: Cc1cnc(NC(=O)C2=C(O)c3ccccc3S(=O)(=O)N2C)s1 [Meloxicam]
- eye size Z-score (female): 1.25

SMILES: Cc1nnc(NS(=O)(=O)c2ccc(N)cc2)s1 [Sulfamethizole]
- eye size Z-score: -0.38

SMILES: CCN1CCC[C@H]1CNC(=O)c1c(OC)ccc(Br)c1OC [Remoxipride hydrochloride]
- eye size Z-score: -0.47

SMILES: CCN1CCN(c2cc3c(cc2F)c(=O)c(C(=O)O)cn3C2CC2)CC1 [Enrofloxacin]
- eye size Z-score: -0.28

SMILES: COc1c2occc2c(OC)c2c(=O)cc(C)oc12 [Khellin]
- eye size Z-score: -0.05

SMILES: Nc1cc(C(Cl)=C(Cl)Cl)c(S(N)(=O)=O)cc1S(N)(=O)=O [Clorsulon]
- eye size Z-score: -0.02

SMILES: CC[C@H](C)C(=O)O[C@H]1CCC=C2C=C[C@H](C)[C@H](CC[C@@H]3C[C@@H](O)CC(=O)O3)[C@H]21 [Mevastatin]
- eye size Z-score: 0.84

SMILES: CC(=O)c1cc2cccc(OCC(O)CNC(C)C)c2o1 (stereo not given) [Befunolol]
- eye size Z-score: 0.74

SMILES: CN1CCN(c2c(F)cc3c(=O)c(C(=O)O)cn(CCF)c3c2F)CC1 [Fleroxacin]
- eye size Z-score: 0.99

SMILES: C[C@H](CCC(=O)O)[C@H]1CC[C@H]2[C@@H]3[C@H](O)C[C@@H]4C[C@H](O)CC[C@]4(C)[C@H]3CC[C@]12C [Chenodiol]
- eye size Z-score: 0.28

SMILES: NNc1nncc2ccccc12 [Hydralazine hydrochloride]
- eye size Z-score: 0.64

SMILES: CC(=O)OCC(CCn1cnc2cnc(N)nc21)COC(C)=O [Famciclovir]
- eye size Z-score: 0.17

SMILES: CN1CCN(CCCN2c3ccccc3Sc3ccc(Cl)cc32)CC1 [Prochlorperazine dimaleate]
- eye size Z-score: 1.86

SMILES: Cc1nc(=O)c2cc(CN(C)c3ccc(C(=O)N[C@@H](CCC(=O)O)C(=O)O)s3)ccc2[nH]1 [Raltitrexed]
- eye size Z-score: -0.36

SMILES: CC(/C=C1\SC(=S)N(CC(=O)O)C1=O)=C\c1ccccc1 [Epalrestat]
- eye size Z-score: 0.03

SMILES: O=c1oc2ccccc2c(O)c1Cc1c(O)c2ccccc2oc1=O [Dicumarol]
- eye size Z-score: -0.05

SMILES: CC(C)NC[C@@H](O)COc1cccc2ccccc12 [(R) Propranolol hydrochloride]
- eye size Z-score: 0.07

SMILES: CCN(CC)CCc1nc(-c2ccccc2)no1 [Oxolamine citrate salt]
- eye size Z-score: -0.06

SMILES: CNCC(O)c1ccc(OC(=O)C(C)(C)C)c(OC(=O)C(C)(C)C)c1 (stereo not given) [Dipivefrin hydrochloride]
- eye size Z-score: 0.03

SMILES: CC(C)NCC(O)c1ccc(O)c(O)c1 (single isomer, unassigned; (+)) [(+) Isoproterenol-(+)-bitartrate salt]
- eye size Z-score: -0.11

SMILES: Cc1c(N(C)CS(=O)(=O)O)c(=O)n(-c2ccccc2)n1C [Dipyrone sodium salt]
- eye size Z-score: 0.49

SMILES: CC(NCCC(c1ccccc1)c1ccccc1)c1ccccc1 (stereo not given) [Fendiline hydrochloride]
- eye size Z-score: -0.24

SMILES: O=c1[nH]c(=O)n(C2CCCO2)cc1F (stereo not given) [Tegafur]
- eye size Z-score: 0.25

SMILES: Nc1nc2n[nH]nc2c(=O)[nH]1 [Azaguanine-8]
- eye size Z-score: -0.15

SMILES: CN(C)c1nc(N(C)C)nc(N(C)C)n1 [Altretamine]
- eye size Z-score: 0.23

SMILES: CC(C)NCC(O)c1ccc2ccccc2c1 (stereo not given) [Pronethalol hydrochloride]
- eye size Z-score: -0.25

SMILES: C[C@H]1C[C@@H]2[C@H]([C@@H](O)C[C@@]3(C)[C@H]2CC[C@]3(O)C(=O)CO)[C@@]2(C)C=CC(=O)C=C12 [Methylprednisolone, 6-alpha]
- eye size Z-score: -0.6

SMILES: CCCNCC(O)COc1ccccc1C(=O)CCc1ccccc1 (stereo not given) [Propafenone hydrochloride]
- eye size Z-score: 0.82

SMILES: NC(=O)C(c1ccccc1)(c1ccccc1)[C@@H]1CCN(CCc2ccc3c(c2)CCO3)C1 [Darifenacin hydrobromide]
- eye size Z-score: 0.73

SMILES: COc1ccccc1OCC(O)CN1CCN(CC(=O)Nc2c(C)cccc2C)CC1 (stereo not given) [Ranolazine]
- eye size Z-score: 0.71

SMILES: COc1cc([C@@H]2c3cc4c(cc3[C@@H](O[C@@H]3O[C@@H]5CO[C@@H](C)O[C@H]5[C@H](O)[C@H]3O)[C@H]3COC(=O)[C@H]23)OCO4)cc(OC)c1O [Etoposide]
- eye size Z-score: 0.12

SMILES: COc1ccc(C2CNC(=O)C2)cc1OC1CCCC1 (stereo not given) [Rolipram]
- eye size Z-score: 1.11

SMILES: CC(C)C[C@@H](NC(=O)[C@H](C)NC(=O)CNC(=O)[C@@H](NC=O)C(C)C)C(=O)N[C@@H](C)C(=O)N[C@@H](C(=O)N[C@H](C(=O)N[C@H](C(=O)N[C@@H](Cc1c[nH]c2ccccc12)C(=O)N[C@H](CC(C)C)C(=O)N[C@@H](Cc1c[nH]c2ccccc12)C(=O)N[C@H](CC(C)C)C(=O)N[C@@H](Cc1c[nH]c2ccccc12)C(=O)N[C@H](CC(C)C)C(=O)N[C@@H](Cc1c[nH]c2ccccc12)C(=O)NCCO)C(C)C)C(C)C)C(C)C [Gramicidin] (For-VGA[dL]A[dV]VVW[dL]W[dL]W[dL]W-NHCH2CH2OH)
- eye size Z-score: -0.08

SMILES: Cc1c(O)c(=O)ccn1C [Deferiprone]
- eye size Z-score: 0.21

SMILES: c1ccc([C@H]2CN3CCSC3=N2)cc1 [Levamisole hydrochloride]
- eye size Z-score: -0.37

SMILES: CCC(=O)O[C@]1(C(=O)CCl)[C@@H](C)C[C@H]2[C@@H]3CCC4=CC(=O)C=C[C@]4(C)[C@@]3(F)[C@@H](O)C[C@@]21C [Clobetasol propionate]
- eye size Z-score: -0.26

SMILES: CC(C)[C@H](N)C(=O)OCC(CO)OCn1cnc2c(=O)nc(N)[nH]c21 (stereo not given in full) [Valganciclovir hydrochloride]
- eye size Z-score: -0.36

SMILES: O=C1OCCN1/N=C/c1ccc([N+](=O)[O-])o1 [Furazolidone]
- eye size Z-score: -1.4

SMILES: CCOC(=O)[C@H](CCc1ccccc1)N[C@H]1CS[C@H](c2cccs2)CN(CC(=O)O)C1=O [Temocapril hydrochloride]
- eye size Z-score: 0.25

SMILES: CCCCc1cc2ccccc2c(OCCN(C)C)n1 [Dimethisoquin hydrochloride]
- eye size Z-score: 0.21

SMILES: CC(C(=O)O)c1ccc2c(c1)[nH]c1ccc(Cl)cc12 (stereo not given) [Carprofen]
- eye size Z-score: 0.16
